{"source": "patent US20090234097A1", "about": "“VASODILATOR” (CALPIS CO., LTD., priority 2006, published 2009)", "key": {"[1]": {"tested_on": "thoracic aorta ring of a Wistar rat", "experiment": "Vasodilating test on phenylephrine-preconstricted aorta ring (Magnus apparatus)", "settings": "aorta ring preconstricted with 1 μM phenylephrine; for concentration from which the vasodilator response was observed: ten-fold increasing concentrations from 10^-9 M; for vasodilator response (change in tension of the aorta ring): at 10 mM (printed 10 mm)", "description": "The thoracic aorta of a Wistar rat was taken out, cut into 2 mm long, and made into an aorta ring. The ring was set in a Magnus apparatus (product name “micro tissue organ bath MTB-1Z”, manufactured by LABO SUPPORT CO., LTD.), and allowed to equilibrate with a constant tension. The constriction response of the aorta ring was confirmed with 50 mM KCl.\nNext, the aorta ring was preliminarily constricted with 1 μM phenylephrine, and VPP and IPP prepared in Synthesis Example were added at ten-fold increasing concentrations from 10^−9 M to observe the vasodilator response through the change in tension of the aorta ring. The dose dependency of the vasodilator response was also studied.\nThe vasodilating test was conducted in the same way as in Example 1, except that the tripeptides VPP and IPP were replaced with amino acids, valine (Val) and proline (Pro), at the same concentration."}, "[2]": {"tested_on": "blood vessel from which the vascular endothelium was physically removed", "experiment": "Confirmatory test for endothelium dependency of vasodilator response", "parameters": "species or system Wistar rat", "settings": "endothelium-removed vessel versus intact vessel"}}, "note": "Part of at least one peptide drawing is inferred or uncertain, most often the ends."}
{"smiles": "CC[C@H](C)[C@H](N)C(=O)N1CCC[C@H]1C(=O)N1CCC[C@H]1C(=O)O", "note": "[IPP, Ile-Pro-Pro]", "values": [{"measurement": "concentration from which the vasodilator response was observed", "setting": "[1]", "result": 1, "unit": "mM"}, {"measurement": "vasodilator response (change in tension of the aorta ring)", "setting": "[1]", "result": "clear, transient vasodilator response"}]}
{"smiles": "CC(C)[C@H](N)C(=O)N1CCC[C@H]1C(=O)N1CCC[C@H]1C(=O)O", "note": "[VPP, Val-Pro-Pro]", "values": [{"measurement": "vasodilator response after removal of the endothelium", "setting": "[2]", "result": "vasodilator response was weakened"}, {"measurement": "concentration from which the vasodilator response was observed", "setting": "[1]", "result": 1, "unit": "mM"}, {"measurement": "vasodilator response (change in tension of the aorta ring)", "setting": "[1]", "result": "clear, transient vasodilator response"}]}
